Some of the results follow. Further columns of the screen follow, without active or inactive calls. The list favours compounds with an active or inconclusive main result. Words in brackets tell the shape of the fitted curve; partial curves, single points and poor fits give uncertain potencies.
Assay: NCATS anti-infectives library activity on the primary C. elegans qHTS viability assay (AID 1745855)
Conditions: C. elegans worm area imaging, day 7, measured here: worm number
Method in brief: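 GFP read-out by 488 nm laser cytometry at day 0, 3 and 7, gated on object perimeter, area and peak intensity, scored viability of PE254-GFP-FLuc worms exposed to compound in S medium with bacterial capsules at 21 °C.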

| Compound | AC50 |
| --- | --- |
| CC(C)=CCC/C(C)=C/CC/C(C)=C/CC/C(C)=C/CC/C(C)=C/CC/C(C)=C/CC/C(C)=C/CC/C(C)=C/CC/C(C)=C/CO | 0.0792 µM [falling, full curve, poor fit] |
| Cc1ccc(S(=O)(=O)OCC(=O)Nc2ccc(C(=O)O)c(O)c2)cc1 | 18.3 µM [falling, partial curve, poor fit] |
| O=C(O)/C(S)=C/c1c[nH]c2ccc(F)cc12 | 23 µM [falling, single point] |
| COC(=O)c1cc(OC)c2c(c1-c1c(CO)cc(OC)c3c1OCO3)OCO2 | 23 µM [falling, partial curve, poor fit] |
| COC[C@H]1C[C@@H](c2ncc(-c3ccc4c(c3)COc3cc5c(ccc6[nH]c([C@@H]7CC[C@H](C)N7C(=O)[C@@H](NC(=O)OC)C(C)C)nc65)cc3-4)[nH]2)N(C(=O)[C@H](NC(=O)OC)c2ccccc2)C1 | 23 µM [falling, single point] |
| CC(C)CN(C[C@@H](OP(=O)(O)O)[C@H](Cc1ccccc1)NC(=O)O[C@@H]1CCOC1)S(=O)(=O)c1ccc(N)cc1 | 0.29 µM [falling, partial curve, poor fit] |
| OC[C@H]1O[C@@H](Oc2c(O)cc(O)cc2/C=C/c2ccc(O)cc2)[C@H](O)[C@@H](O)[C@@H]1O | 2.3 µM [falling, partial curve, poor fit] |
| C=CC(=O)N1C/C(=C\c2ccc([N+](=O)[O-])cc2)C(=O)/C(=C/c2ccc([N+](=O)[O-])cc2)C1 | 8.16 µM [falling, partial curve, poor fit] |
| COc1c(-c2ccc3cc(NS(C)(=O)=O)ccc3c2)cc(-n2ccc(=O)[nH]c2=O)cc1C(C)(C)C | 0.145 µM [falling, single point] |
| Cc1ccc(C2Nc3ccccc3C(=O)N2c2ccccc2)s1 (stereo not given) | 0.0916 µM [falling, full curve, poor fit] |
| Cc1ccc(-c2ccc3c(c2)C=C(C(=O)Nc2ccc(C[N+](C)(C)C4CCOCC4)cc2)CCC3)cc1 | 18.3 µM [falling, partial curve, poor fit] |
| Cc1cc(Nc2cc(N)ncn2)c(=O)n2c1C(=O)NC21CCCCC1 | 18.3 µM [falling, partial curve, poor fit] |
| N#CC(=C(/N)Sc1ccccc1N)/C(C#N)=C(\N)Sc1ccccc1N | 3.25 µM [falling, full curve, poor fit] |
| c1ccc([C@H]2CN3CCSC3=N2)cc1 | 1.83 µM [falling, partial curve, poor fit] |

Rewritten as tab-separated lines: two of the compounds above.
Compound	AC50
Cc1ccc(C2Nc3ccccc3C(=O)N2c2ccccc2)s1 (stereo not given)	0.0916 µM [falling, full curve, poor fit]
Cc1ccc(-c2ccc3c(c2)C=C(C(=O)Nc2ccc(C[N+](C)(C)C4CCOCC4)cc2)CCC3)cc1	18.3 µM [falling, partial curve, poor fit]

Same assay, conditions: C. elegans worm area imaging, day 7; measured here: worm area, day 3

| Compound | AC50 |
| --- | --- |
| COC(=O)[C@H]1[C@@H](O)[C@@]2(O)c3c(OC)cc(O[C@@H]4O[C@@H]([C@H](O)CO)CO[C@H]4OC)cc3O[C@@]2(c2ccc(OC)cc2)[C@@H]1c1ccccc1 | 18.3 µM [falling, partial curve, poor fit] |
| OCc1ccc(Cl)cc1Cl | 25.8 µM [rising, single point] |
| C/C(=N\NC(=O)C(NC(=O)c1ccccc1)c1n[nH]c(=O)c2ccccc12)c1cccc(Br)c1 (stereo not given) | 18.3 µM [falling, partial curve, poor fit] |
| O=c1[nH]cnc2ccccc12 | 29 µM [rising, single point] |
| Cc1ccc(CCCO)c(NCc2ccc3nc(NCCCN4CCOCC4)n(Cc4nc(C)ccc4O)c3c2)c1 | 12.9 µM [rising, partial curve, poor fit] |
| CCCC(CCC)C(N)=O | 1.41 µM [falling, partial curve, poor fit] |
| O=C(Cc1ccccc1)Nc1nnc(CCSCCc2nnc(NC(=O)Cc3ccccc3)s2)s1 | 10.3 µM [rising, single point] |
| c1ccc(CNCc2ccc(CN3CCCNCCNCCCNCC3)cc2)nc1 | 20.5 µM [rising, single point] |

Same assay, conditions: C. elegans worm area imaging, day 7; measured here: worm number, day 3

| Compound | AC50 |
| --- | --- |
| Cc1cc(CCCOc2c(C)cc(-c3noc(C(F)(F)F)n3)cc2C)on1 | 1.03 µM [falling, full curve, poor fit] |
| COC(=O)[C@H](CCSC)NC(=O)c1ccc(NC[C@@H](N)CS)cc1-c1ccccc1 | 2.9 µM [rising, full curve, poor fit] |
| Nc1ccn([C@@H]2CS[C@H](CO)O2)c(=O)n1 | 36.5 µM [falling, single point] |
| O=C1c2cccc(O)c2C(=O)c2c(O)cc(CO)cc21 | 0.728 µM [falling, full curve, poor fit] |
| COc1cc2c(c(OC)c1OC)-c1c(cc(OC)c(OC)c1OC)CC(C)C(C)C2 (stereo not given) | 1.63 µM [falling, partial curve, poor fit] |
| CC(C)(C)NC(=O)N[C@H](C(=O)N1C[C@H]2[C@@H]([C@H]1C(=O)NC(CC1CCC1)C(=O)C(N)=O)C2(C)C)C(C)(C)C (stereo not given in full) | 29 µM [rising, single point] |
| CC1(C)O[C@H]2CC(=O)OC[C@]23[C@H]2CC[C@@]4(C)[C@H](c5ccoc5)OC(=O)[C@H]5O[C@]54[C@]2(C)C(=O)C[C@@H]13 | 7.27 µM [falling, partial curve, poor fit] |
| CC(=O)c1cc([N+](=O)[O-])c(Sc2ccc(F)cc2F)s1 | 0.205 µM [falling, partial curve, poor fit] |
| CCCCCCCCCCCCCCCCOCCCOP(=O)(O)CO[C@H](CO)Cn1ccc(N)nc1=O | 3.73 µM [falling, partial curve, poor fit] |
| CCCCc1ccc(O)cc1O | 1.03 µM [falling, full curve, poor fit] |
| CC(=O)OC(C)(C)CCC(=O)[C@](C)(O)C1[C@H](O)C[C@@]2(C)C3CC=C4C(C[C@H](O)[C@@H](O)C4(C)C)[C@]3(C)C(=O)C[C@]12C (stereo not given in full) | 0.258 µM [falling, partial curve, poor fit] |
| CC(O)(P(=O)(O)O)P(=O)(O)O | 5.92 µM [rising, single point] |
| CCO[C@@H]1OC(=O)C[C@@H]1NC(=O)[C@@H]1CCCN1C(=O)[C@@H](NC(=O)c1ccc(N)c(Cl)c1)C(C)(C)C | 5.15 µM [rising, partial curve, poor fit] |
| O=c1cc(-c2ccc(O)cc2)oc2cc(O)c(O)c(O)c12 | 20.5 µM [rising, partial curve, poor fit] |
| Cc1nnc(C(C)C)n1C1CC2CCC(C1)N2CC[C@H](NC(=O)C1CCC(F)(F)CC1)c1ccccc1 (stereo not given in full) | 0.728 µM [falling, partial curve, poor fit] |
| CCN(CC)Cc1ccc(C(=O)N(CCc2ccccc2OC)[C@@H]2CCNC2)cc1 | 36.5 µM [rising, single point] |
| COc1ccc(/C=C/C(=O)O)cc1O | 3.33 µM [rising, full curve, poor fit] |
| N[C@@H](CC(=O)N1CCn2c(nnc2C(F)(F)F)C1)Cc1cc(F)c(F)cc1F | 29 µM [rising, single point] |
